Measurements published in patent publication US20100076060.
Construct, isoform or probe ends are uncertain for at least one entry.

Sequences of proteins named here, by UniProt entry; tags and fusion partners are left off. Residues count along the entry.
UniProt Q07011, 24-186: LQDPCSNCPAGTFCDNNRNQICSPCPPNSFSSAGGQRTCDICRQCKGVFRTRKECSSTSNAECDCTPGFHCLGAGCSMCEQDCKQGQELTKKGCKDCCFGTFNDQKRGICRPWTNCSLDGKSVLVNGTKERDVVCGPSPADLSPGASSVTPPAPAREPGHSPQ

target: 4-1BB (CD137) extracellular portion (Homo sapiens) (UniProt Q07011); assay: SELEX; conditions: 2'-F pyrimidines; purified recombinant protein; protein details: human IgG1 Fc fusion

Selection result, selected:
GGGAGAGAGGAAGAGGGAUGGGACCAGCUUCCCUGGGCCUGCUGUGAACUCCAGCCUGACUACAUAACCCAGAGGUCGAUAGUACUGGAUCCCCCC [4-1BB aptamer SEQ 64]

target: T1, 4-1BB (CD137) extracellular portion (Mus musculus) (UniProt P20334); assay: SELEX; conditions: 2'-F pyrimidines; purified recombinant protein; protein details: human IgG1 Fc fusion
T1 sequence: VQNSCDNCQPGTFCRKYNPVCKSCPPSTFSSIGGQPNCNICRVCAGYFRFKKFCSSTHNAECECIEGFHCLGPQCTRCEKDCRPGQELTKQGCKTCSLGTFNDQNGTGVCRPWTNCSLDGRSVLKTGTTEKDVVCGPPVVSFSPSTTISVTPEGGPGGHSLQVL

Selection result, selected:
GGGAGAGAGGAAGAGGGAUGGGAAAGCGACAAUUCUUACUACUCCCCAAGCUCCACGCCUUUCAUAACCCAGAGGUCGAUAGUACUGGAUCCCCCC [4-1BB aptamer SEQ 12]
GGGAGAGAGGAAGAGGGAUGGGAACCGACCGCAGAUCUGGACACUAGCUUUCGCGAGGAUUCAUAACCCAGAGGUCGAUAGUACUGGAUCCCCCC [4-1BB aptamer SEQ 28]
GGGAGAGAGGAAGAGGGAUGGGAACGGCCCAAUGACUUCGCCUUCUGCCCCCCUAAGCUUCCAUAACCCAGAGGUCGAUAGUACUGGAUCCCCCC [4-1BB aptamer SEQ 16]
GGGAGAGAGGAAGAGGGAUGGGAACUACCUCCUCGAACCAUAGUUCAACACCAUCCAGCCAUCAUAACCCAGAGGUCGAUAGUACUGGAUCCCCCC [4-1BB aptamer SEQ 19]
GGGAGAGAGGAAGAGGGAUGGGAAGACGAUACCUAGCCUCAAAAUUCCUCCCCCGACUUCCUCAUAACCCAGAGGUCGAUAGUACUGGAUCCCCCC [4-1BB aptamer SEQ 13]
GGGAGAGAGGAAGAGGGAUGGGAAGUUAAUCGCGCCUUACCAGCUUCAGGACCAUUCAAUUCCAUAACCCAGAGGUCGAUAGUACUGGAUCCCCCC [4-1BB aptamer SEQ 33]
GGGAGAGAGGAAGAGGGAUGGGACACUGAAAACGGGCAAGUGACUACGAUUCGUGUCAGACCAUAACCCAGAGGUCGAUAGUACUGGAUCCCCCC [4-1BB aptamer SEQ 42]
GGGAGAGAGGAAGAGGGAUGGGACCAGCUUCCCUGGGCCUGCUGUGAACUCCAGCCUGACUACAUAACCCAGAGGUCGAUAGUACUGGAUCCCCCC [4-1BB aptamer SEQ 64]
GGGAGAGAGGAAGAGGGAUGGGACGACCACCAACGAUUGAGCAGCUAGAUUCGACCGACACUCAUAACCCAGAGGUCGAUAGUACUGGAUCCCCCC [4-1BB aptamer SEQ 46]
GGGAGAGAGGAAGAGGGAUGGGAUCAGUACAUGCUCCGGGGCAGCCGAAUAUCUCGCGCUUCAUAACCCAGAGGUCGAUAGUACUGGAUCCCCCC [4-1BB aptamer SEQ 24]
GGGAGAGAGGAAGAGGGAUGGGCAAACCCAUGCAAGACUCUUCAAUCUCCAACCCCUUCCAACAUAACCCAGAGGUCGAUAGUACUGGAUCCCCCC [4-1BB aptamer SEQ 37]
GGGAGAGAGGAAGAGGGAUGGGCAAGCACUCUUCAGGCUAAGGACUCUCUUGACACCCCGCCAUAACCCAGAGGUCGAUAGUACUGGAUCCCCCC [4-1BB aptamer SEQ 7]
GGGAGAGAGGAAGAGGGAUGGGCAAGCACUCUUCAGGCUAAGGACUCUCUUGACACCCCGCCAUAACCCAGAGGUCGAUAGUACUGGAUCCCCCC [4-1BB aptamer SEQ 26]
GGGAGAGAGGAAGAGGGAUGGGCACCCGUCUGCCAGACGCUCGACCCAAACUCCAGCCUCUCAUAACCCAGAGGUCGAUAGUACUGGAUCCCCCC [4-1BB aptamer SEQ 35]
GGGAGAGAGGAAGAGGGAUGGGCAGAAACUAGACCUCCGAUCGGACACCCGGUCCCUUCGUCCAUAACCCAGAGGUCGAUAGUACUGGAUCCCCCC [4-1BB aptamer SEQ 5]
GGGAGAGAGGAAGAGGGAUGGGCCCCCUCGCAAGACCCUCAUCGCAUCUCAAGACACCUACCCAUAACCCAGAGGUCGAUAGUACUGGAUCCCCCC [4-1BB aptamer SEQ 45]
GGGAGAGAGGAAGAGGGAUGGGCCGCCAUUAACCCUGAACAGAAUCUUCCUAUCCCAACCCGCAUAACCCAGAGGUCGAUAGUACUGGAUCCCCCC [4-1BB aptamer SEQ 21]
GGGAGAGAGGAAGAGGGAUGGGCCUCCUUCCUAACCCGCAAACACGAUUGGCUCGAAACUUCCAUAACCCAGAGGUCGAUAGUACUGGAUCCCCCC [4-1BB aptamer SEQ 27]
GGGAGAGAGGAAGAGGGAUGGGCGACCGAACGUGCCCUUCAAAGCCGUUCACUAACCAGUGACAUAACCCAGAGGUCGAUAGUACUGGAUCCCCCC [4-1BB aptamer SEQ 3 (full SEQ 88)]
GGGAGAGAGGAAGAGGGAUGGGCGACCGAACGUGCCCUUCAAAGCCGUUCACUAACCAGUGCCAUAACCCAGAGGUCGAUAGUACUGGAUCCCCCC [4-1BB aptamer SEQ 1]
GGGAGAGAGGAAGAGGGAUGGGCGACCGAACGUGCCCUUCAAAGCCGUUCACUAACCAGUGGCAUAACCCAGAGGUCGAUAGUACUGGAUCCCCCC [4-1BB aptamer SEQ 2]
GGGAGAGAGGAAGAGGGAUGGGCGACCGAACGUGCCCUUCAAAGCCGUUCACUAACCAGUGGCAUAACCCAGAGGUCGAUAGUACUGGAUCCCCCC [4-1BB aptamer SEQ 30]
GGGAGAGAGGAAGAGGGAUGGGCGAGAACCCGCAUCUUCGGAUGCGCCCCCCUAGGACUUACCAUAACCCAGAGGUCGAUAGUACUGGAUCCCCCC [4-1BB aptamer SEQ 14]
GGGAGAGAGGAAGAGGGAUGGGCGCUCUCUCACAACCACGACCUCCGAUCUGAUAAUUCGUCCAUAACCCAGAGGUCGAUAGUACUGGAUCCCCCC [4-1BB aptamer SEQ 17]
GGGAGAGAGGAAGAGGGAUGGGCGUCAACCCCUUUCAGUCUCCCCGUAAGCAUCUCUUCCACCAUAACCCAGAGGUCGAUAGUACUGGAUCCCCCC [4-1BB aptamer SEQ 40]
GGGAGAGAGGAAGAGGGAUGGGCUCCAAUCCCCGAAAUCUUCAAGCUGCUCUCCAGUCCCCACAUAACCCAGAGGUCGAUAGUACUGGAUCCCCCC [4-1BB aptamer SEQ 41]
GGGAGAGAGGAAGAGGGAUGGGCUCCUAGACAGACGAUGUCUGAACGACUCUUGAAGGGCAGCAUAACCCAGAGGUCGAUAGUACUGGAUCCCCCC [4-1BB aptamer SEQ 20]
GGGAGAGAGGAAGAGGGAUGGGCUCCUAGUCAGACGAUGUCUGAACGACUCUUGAAGGGCAGCAUAACCCAGAGGUCGAUAGUACUGGAUCCCCCC [4-1BB aptamer SEQ 43]
GGGAGAGAGGAAGAGGGAUGGGCUGACUGCCACUUCUUCCCAGCAAUCUUCACCGUCCUUCUCAUAACCCAGAGGUCGAUAGUACUGGAUCCCCCC [4-1BB aptamer SEQ 32]
GGGAGAGAGGAAGAGGGAUGGGCUUCAACAACGACUCGCCAUACAACAACACACAACCCCUUCAUAACCCAGAGGUCGAUAGUACUGGAUCCCCCC [4-1BB aptamer SEQ 38]
GGGAGAGAGGAAGAGGGAUGGGCUUCCACACUCUCCUAGCUGGACAACAGACUAACCUUCUUCAUAACCCAGAGGUCGAUAGUACUGGAUCCCCCC [4-1BB aptamer SEQ 34]
GGGAGAGAGGAAGAGGGAUGGGGAAGACCAAACGAGCCACCUUCAAGUCCCAUCCAACCCCUCAUAACCCAGAGGUCGAUAGUACUGGAUCCCCCC [4-1BB aptamer SEQ 39]
GGGAGAGAGGAAGAGGGAUGGGGAAGCACAAUAGGCCGCAACACUUCAAAACCCAUUCAAUCCAUAACCCAGAGGUCGAUAGUACUGGAUCCCCCC [4-1BB aptamer SEQ 6]
GGGAGAGAGGAAGAGGGAUGGGGAAGUGACAGCUCCCAGCGCUUCAAAGCUCAUCUAUAACUCAUAACCCAGAGGUCGAUAGUACUGGAUCCCCCC [4-1BB aptamer SEQ 4]
GGGAGAGAGGAAGAGGGAUGGGGACCAAGGGCAGCAUCACCGUUCCCCCCCUAGGAGCUUACCAUAACCCAGAGGUCGAUAGUACUGGAUCCCCCC [4-1BB aptamer SEQ 15]
GGGAGAGAGGAAGAGGGAUGGGGACCACCACAGCGACAGGCUCGCACGACUCUCGAAGAGGCAUAACCCAGAGGUCGAUAGUACUGGAUCCCCCC [4-1BB aptamer SEQ 25]
GGGAGAGAGGAAGAGGGAUGGGGCACAGCAACACCACGACCCCCCCUAGGCUUCCGCCCGCACAUAACCCAGAGGUCGAUAGUACUGGAUCCCCCC [4-1BB aptamer SEQ 10]
GGGAGAGAGGAAGAGGGAUGGGGCACAGCAACACCACGACCCCCCCUAGGCUUCCGCCCGCCCAUAACCCAGAGGUCGAUAGUACUGGAUCCCCCC [4-1BB aptamer SEQ 8]
GGGAGAGAGGAAGAGGGAUGGGGCACAGCAACACCACGACCCCCCCUAGGCUUCCGCCCGCGCAUAACCCAGAGGUCGAUAGUACUGGAUCCCCCC [4-1BB aptamer SEQ 9]
GGGAGAGAGGAAGAGGGAUGGGGCACCAAACACCGGUUCAGAACCCAUCAUGUAACUCCUUGCAUAACCCAGAGGUCGAUAGUACUGGAUCCCCCC [4-1BB aptamer SEQ 18]
GGGAGAGAGGAAGAGGGAUGGGGCACUCUUACUUCUCGCCCACCAACCGAACCCAGCCAUCUCAUAACCCAGAGGUCGAUAGUACUGGAUCCCCCC [4-1BB aptamer SEQ 31]
GGGAGAGAGGAAGAGGGAUGGGGCUUCUACAGGGGGUAAAGAUUCGCUCAUCACUCGCAAAACAUAACCCAGAGGUCGAUAGUACUGGAUCCCCCC [4-1BB aptamer SEQ 29]
GGGAGAGAGGAAGAGGGAUGGGUAACGGCCCAAUGACUUCGCCUUACUGCCCCCCUAAGCUUCCAUAACCCAGAGGUCGAUAGUACUGGAUCCCCCC [4-1BB aptamer SEQ 11]
GGGAGAGAGGAAGAGGGAUGGGUAAGCGGCCUCGAACACCGAUUGACUACUGCCCGAACAUCCAUAACCCAGAGGUCGAUAGUACUGGAUCCCCCC [4-1BB aptamer SEQ 44]
GGGAGAGAGGAAGAGGGAUGGGUCACCCGACGAUACCUAACUUCCUCCGACAAGCCUUUGCCCAUAACCCAGAGGUCGAUAGUACUGGAUCCCCCC [4-1BB aptamer SEQ 22]
GGGAGAGAGGAAGAGGGAUGGGUGAUCCAAAACCAAAUAGCAGUAGACUCUCGAAGAGGACGCAUAACCCAGAGGUCGAUAGUACUGGAUCCCCCC [4-1BB aptamer SEQ 36]
